PubChem BioAssay AID1159578 – Peter MacCallum Cancer Centre – 2015

Aim: 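Knock-downs that alter how fast lymphatic endothelial cells migrate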 (primary screen)
Cells: human lymphatic endothelial cells
Reagent: siRNA pool against human genes, 40 nM
Timing: 48 h after transfection
Detection: 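Cells stained with dye and imaged after a scratch; covered wound area and nuclei counted, duplicates averaged, migration set against mock wells and turned into a robust z-score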
Reading the numbers: migration robust z-score: higher = faster migration into the scratch; nuclei per well: higher = more cells in the well
Rule for the call: 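Migration changed when robust z exceeds 2 or falls below -2 and mean nuclei number is at least 3300; otherwise not called changed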
Calls: active = migration changed; inactive = no migration change, or too few cells
The whole screen tested about 18,000 reagents; this is an unselected part. Of all reagents, about 1,030 (5.7%) are marked active. 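Inactive calls also include pools with fewer than 3300 nuclei, whose migration was not assessed.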 The raw values are shown without normalisation. A number with no mark means an inactive call. Further read-outs or replicates are left out here. No sequences are given here.

For CHMP2B (charged multivesicular body protein 2B), the entry reads migration robust z-score -1.79; migration class with cell-count check migration z between -2 and 2; enough cells; nuclei per well, duplicate mean 6322. HIKESHI (heat shock protein nuclear import factor hikeshi) scored migration robust z-score 0.21; migration class with cell-count check migration z between -2 and 2; enough cells; nuclei per well, duplicate mean 6144. For TKT (transketolase), the entry reads migration robust z-score -0.8; migration class with cell-count check migration z between -2 and 2; enough cells; nuclei per well, duplicate mean 6009. After knock-down of BIRC8 (baculoviral IAP repeat containing 8) the results were migration robust z-score 0.02; migration class with cell-count check migration z between -2 and 2; enough cells; nuclei per well, duplicate mean 6501.

Quoted from above, 2 entries:
CHMP2B (charged multivesicular body protein 2B) → migration robust z-score = -1.79; migration class with cell-count check = migration z between -2 and 2; enough cells; nuclei per well, duplicate mean = 6322
HIKESHI (heat shock protein nuclear import factor hikeshi) → migration robust z-score = 0.21; migration class with cell-count check = migration z between -2 and 2; enough cells; nuclei per well, duplicate mean = 6144

Additional reagents follow:
With knock-down of ARIH2 (ariadne RBR E3 ubiquitin protein ligase 2) the results were migration robust z-score -0.36; migration class with cell-count check migration z between -2 and 2; enough cells; nuclei per well, duplicate mean 4329. After knock-down of NDUFAF3 (NADH:ubiquinone oxidoreductase complex assembly factor 3), the screen gave migration robust z-score -0.01; migration class with cell-count check migration z between -2 and 2; enough cells; nuclei per well, duplicate mean 5405. For SKIC8 (SKI8 subunit of superkiller complex), the entry reads migration robust z-score -0.12; migration class with cell-count check migration z between -2 and 2; enough cells; nuclei per well, duplicate mean 4502. Against LRRC32 (leucine rich repeat containing 32) the deposit lists migration robust z-score -0.22; migration class with cell-count check migration z between -2 and 2; enough cells; nuclei per well, duplicate mean 5392. ZNF154 (zinc finger protein 154) showed migration robust z-score -0.73; migration class with cell-count check migration z between -2 and 2; enough cells; nuclei per well, duplicate mean 6498. For ZNF160 (zinc finger protein 160) the deposit lists migration robust z-score -1.12; migration class with cell-count check migration z between -2 and 2; enough cells; nuclei per well, duplicate mean 5812.

For CXorf38 (chromosome X open reading frame 38) the deposit lists migration robust z-score 1.62; migration class with cell-count check migration z between -2 and 2; enough cells; nuclei per well, duplicate mean 6205. After knock-down of RAB11B (RAB11B, member RAS oncogene family), the record shows migration robust z-score -0.7; migration class with cell-count check migration z between -2 and 2; enough cells; nuclei per well, duplicate mean 4424.
